In PMC4703840:
Tags and fusion partners may be left off the protein sequences shown.

Biological target: T1, ExuR (Escherichia coli TOP10) (UniProt P0ACL3)
T1 sequence (looked up): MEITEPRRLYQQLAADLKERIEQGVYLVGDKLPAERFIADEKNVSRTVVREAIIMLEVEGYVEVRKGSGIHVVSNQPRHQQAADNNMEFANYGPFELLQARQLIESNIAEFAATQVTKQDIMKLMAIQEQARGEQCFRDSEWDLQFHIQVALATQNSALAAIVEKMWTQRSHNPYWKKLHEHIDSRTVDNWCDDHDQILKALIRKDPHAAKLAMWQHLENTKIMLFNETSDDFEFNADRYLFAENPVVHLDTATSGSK
Experiment: DNaseI footprinting
Settings: poly-dIdC 1 µg; 7.5 mM Tris-HCl pH 7.4, 0.5 mM EDTA, 5 mM KCl, 2.5% glycerol, 0.5 mM DTT, 0.4 µg BSA, 1 µg poly-dIdC; probe 37 C 20 min, DNaseI 26 C 5 min; protein translated in vitro; residues 1-258; probe letters rebuilt from the primers and the genome

“TGACGAGTAGACGCTGGTAGTTTCGTGCTAATTCGGCTTCCGTACCGGTTAACCCGATTCATCTAACAAATGAATGAATCGGCAATTTGCATTCCGTCGACTTATGATTTGCGACGGCAGAAAGATAACTTGTCATACAACTTTAAAAGGTGAGAGCCATCACAAATGTGGGAATATTTGTAGGGACATTACCTGACGACAGCAAGGCCAGTACTGGCGCGGCCTGCAGCGAGATTTACCACTTTGAGAGTAATTTTTTTAACTACGTTTATTGATCTAACTCACGAAAATATCTTCGGACTCTGGAAATTGGTGTGATAACTTTGTCAGCATCGCACCATAAGCAAGCTAGCTCACTCGTTGAGAGGAAGACGAAAATGACTCCGTTTATGACTGATCGATACCGTCGACCTCGA (double strand) [exuT promoter]”: binds.
